Test results published in patent US10016469B2, “Composition comprising antifungal agents for treating vulvovaginitis and vaginosis” (Two Lines Co., Ltd., priority 2015, dated 2018).
At least one compound was matched to its structure with a doubt left.

Tested on: wild-type Gardnerella vaginalis (G. vaginalis) strain obtained from 33 patients suffering from bacterial vaginosis
Assay: Antibiotic disk diffusion assay on clinical isolates
Format: cell-based
Conditions: strains of Table 11
Source text: Columbia agar containing a 5% human red blood cell solution was used as a media for Gardnerella vaginalis (G. vaginalis, ATCC 14018) and a MRS agar was used as a media for the strains of the present invention (S. denitnficans YH1 and L. crispatus YH2). As the antibiotic disk, a product manufactured by OXIOD was used.
As described above, augmentin, metronidazole, and clindamycin were applied to a wild-type Gardnerella vaginalis (G. vaginalis) strain obtained from 33 patients suffering from bacterial vaginosis and a standard microorganism (ATCC 14018) and subjected to a test using a disk diffusion assay.

CCC[C@@H]1C[C@@H](C(=O)N[C@@H]([C@H]2O[C@H](SC)[C@H](O)[C@@H](O)[C@H]2O)[C@H](C)Cl)N(C)C1 [Clindamycin]
resistance of the G. vaginalis strains, in words: no strain was resistant
